Drawing on PubChem BioAssay AID493014 (National Center for Advancing Translational Sciences (NCATS), 2011), this text covers AC50 for 39 compounds.

Some of the results follow. Shown are side measurements of this screen, not its main read-out; they come without a call. Most of these compounds were active or inconclusive in the main read-out, so they are no random draw. The note in brackets gives the kind of curve behind each potency; many fits are weak.

A short description of the test: qHTS Assay to Find Inhibitors of Chronic Active B-Cell Receptor Signaling. The note with it: ABC-DLBCL IkBa-CBG/CBR reporter, luminescence ratio (green luciferase fused to IkBa over red control in TMD8 lymphoma cells), 4 h. In a few lines:
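TMD8 human ABC-DLBCL cells with doxycycline-inducible IκBα–green luciferase fusion and unfused red luciferase, in 0.5% FBS medium; compounds up to 46 uM, 4 h at 37C. Green/red luminescence ratio, filter-overlap corrected, fitted to concentration-response curves.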

Setting [1] is: measured here: CBR red luminescence, cell number.
[2] abbreviates: measured here: IkBa-CBG green luminescence.

`O=C(Cc1ccccc1)Nc1ccc2c(c1)OC1(CCCC1)O2`: the AC50 under setting [1] is 14.6 µM [rising, partial curve, poor fit].

As for `Cc1cccc(C(=O)NCC(=O)N2CCN(c3ccc(Cl)cc3)CC2)c1`, the concentration at half-maximal activity (AC50) under setting [1] is 1 µM [rising, full curve, poor fit].

As for `O=C(NCN1C(=O)C2C3C=CC(C3)C2C1=O)Nc1ccccc1O` (centres undefined), under setting [1], the AC50 was 4.47 µM [falling, full curve, poor fit].

Turning to `CCCc1cc(C(=O)Nc2cccc([N+](=O)[O-])c2)cs1`, the half-maximal activity concentration (AC50) under setting [1] was 1.78 µM [rising, partial curve, poor fit].

In the case of `O=C(CCOc1ccccc1)NCc1ccccc1`, the AC50 under setting [1] is 20.6 µM [rising, single point].

Consider `Cc1ccc2c(CN(C)Cc3ccc(Cl)cc3Cl)cc(=O)oc2c1`, for which the AC50 under setting [1] was 7.08 µM [rising, full curve].

In the case of `CCCc1cc(C(=O)N/N=C/c2ccc(C)o2)c2ccccc2n1`, under setting [1], the AC50 was 11.2 µM [falling, partial curve].

`O=C1CCN(Cc2nc(-c3ccc(Cl)cc3)no2)CCN1`: under setting [1], the concentration at half-maximal activity (AC50) was 14.1 µM [rising, single point].

For `COc1ccc(F)cc1S(=O)(=O)NCCc1sc2nc(-c3ccc(F)cc3)nn2c1C`, the half-maximal activity concentration (AC50) under setting [1] is 14.1 µM [falling, partial curve, poor fit].

In the case of `Cc1ccc(C)c(NC(=O)c2cc(-c3cc(C)cc(C)c3O)n[nH]2)c1`, under setting [1], the AC50 was 20 µM [falling, partial curve, poor fit].

Turning to `CCCCNCC(O)(c1ccc(Cl)cc1)c1ccc(Cl)cc1`, the AC50 under setting [1] was 17.8 µM [falling, single point].

As to `O=C(NCCc1ccccc1)c1cccc(Br)c1`, under setting [1], the AC50 was 11.2 µM [falling, partial curve, poor fit].

On to `COC(=O)c1c(NC(=O)CN2CCC3(O)CCCCC3C2c2ccc(OC)cc2OC)sc(C)c1C` (centres undefined), for which the concentration at half-maximal activity (AC50) under setting [1] is 29.1 µM [falling, single point].

Consider `CC1=C(C(=O)OCC2CCCO2)C(c2ccccc2OC(C)C)C2=C(CC(c3ccco3)CC2=O)N1` (centres undefined), for which, under setting [1], the concentration at half-maximal activity (AC50) is 6.51 µM [falling, partial curve, poor fit].

For `COC(=O)Cc1ccc(NC(=S)NCc2ccccc2Cl)cc1`, the AC50 under setting [1] was 23.1 µM [rising, single point].

As for `CCC(=O)c1ccc(N2CCCCCC2)c(F)c1`, under setting [1], the concentration at half-maximal activity (AC50) is 23.1 µM [rising, single point].

For the compound `CCc1nnc(NC(=O)C2CCCN2C(=O)Nc2ccccc2OC)s1` (centres undefined), the AC50 under setting [1] was 0.00651 µM [falling, full curve, poor fit].

Take `Cc1ccc(C2C=NN(c3ccccc3)C2=O)cc1` (centres undefined): the AC50 under setting [1] is 8.91 µM [falling, partial curve].

On to `Cc1cccc(OCCn2c(=O)sc3ccccc32)c1`, for which the concentration at half-maximal activity (AC50) under setting [1] was 32.6 µM [rising, single point].

On to `CCOC(=O)C(NS(=O)(=O)c1ccc(C)cc1)(C(F)(F)F)P(=O)(OCC(C)C)OCC(C)C` (centres undefined), for which the AC50 under setting [1] is 18.4 µM [rising, partial curve, poor fit].

For the compound `O=C(Cc1n[nH]c(=O)c2ccccc12)OCC(=O)c1ccc2c(c1)OCCO2`, the concentration at half-maximal activity (AC50) runs as follows: under setting [1], 12.6 µM [rising, partial curve]; under setting [2], 7.08 µM [falling, partial curve].

Consider `Cc1cccc(NC(=O)COC(=O)c2ccccc2SCC(=O)N2CCCC2)c1`, for which, under setting [1], the AC50 was 1.78 µM [rising, partial curve, poor fit].

Consider `Cc1cc(C)c2cc(CN(CCN(C)C)C(=O)Nc3ccccc3Cl)c(=O)[nH]c2c1`, for which the AC50 under setting [1] was 35.5 µM [falling, single point].

For `CCCNc1ccc(C(=O)OCC)cc1[N+](=O)[O-]`, the half-maximal activity concentration (AC50) under setting [1] was 7.08 µM [rising, partial curve] and the AC50 under setting [2] was 11.2 µM [falling, partial curve].

On to `CCOC(=O)c1cc2c(nc1N)CCCC2`, for which, under setting [1], the concentration at half-maximal activity (AC50) is 35.5 µM [rising, single point].

For `C/C(=N\NC(=O)CSc1nc2ccccc2c(=O)n1-c1ccccc1C)c1cccs1`, the concentration at half-maximal activity (AC50) under setting [1] was 29.1 µM [rising, single point].

On to `CCOc1ccc2c(C)cc(=O)oc2c1OCC`, for which, under setting [1], the half-maximal activity concentration (AC50) is 11.2 µM [rising, single point].

As for `O=c1[nH]c(N/N=C\c2ccc(F)cc2)nc2ccccc12`, the half-maximal activity concentration (AC50) under setting [1] is 3.55 µM [falling, full curve].

On to `CCOC(=O)c1cc2sccc2n1CC(=O)Nc1ccc(OC)cc1`, for which the half-maximal activity concentration (AC50) under setting [1] is 14.1 µM [rising, partial curve, poor fit].

`O=C(N/N=C/c1sc(N2CCOCC2)nc1-c1ccccc1)c1ccc(O)cc1`: the half-maximal activity concentration (AC50) under setting [1] was 11.2 µM [falling, partial curve].

For `O=C(CN1C(=O)c2cccc3cccc1c23)N1CCN(c2ccccc2)CC1`, under setting [1], the concentration at half-maximal activity (AC50) was 3.66 µM [falling, single point].

With `COc1cccc(NC(C)=[N+](C)CCNS(=O)(=O)c2ccc(Cl)cc2)c1`, under setting [1], the AC50 was 0.355 µM [rising, full curve, poor fit].

Consider `Cc1ccc2nc(SCc3nnc(-c4ccccc4[N+](=O)[O-])o3)c(C#N)cc2c1`, for which the AC50 under setting [1] was 2.51 µM [falling, partial curve].

For `CCOC(=O)C(C)Oc1cccc2c(=O)n(CC(=O)NCc3ccc(F)cc3)ccc12` (centres undefined), the half-maximal activity concentration (AC50) under setting [1] was 3.98 µM [rising, full curve] and the AC50 under setting [2] is 5.62 µM [falling, partial curve].

Consider `Cc1cccc(NS(=O)(=O)c2ccc(NC(=O)CN(c3cc([N+](=O)[O-])ccc3C)S(C)(=O)=O)cc2)c1`, for which the half-maximal activity concentration (AC50) under setting [1] is 20.6 µM [falling, single point].

As to `O=C(Nc1ccc(Cl)cc1)N1CCCN(Cc2ccc(F)cc2)C1`, the AC50 under setting [1] was 3.66 µM [falling, partial curve, poor fit].

In the case of `CCN1C(=O)c2cccc3c(NC(=O)c4ccc(OC)c(OC)c4)ccc1c23`, the concentration at half-maximal activity (AC50) under setting [1] was 20.6 µM [rising, partial curve] and the concentration at half-maximal activity (AC50) under setting [2] was 23.1 µM [falling, partial curve, poor fit].

With `Cc1ccc(N2C(=O)CC(n3nc(C)cc3C)C2=O)cc1` (centres undefined), the AC50 under setting [1] is 29.1 µM [falling, single point] and the AC50 under setting [2] is 23.1 µM [rising, partial curve, poor fit].

Regarding `COC(=O)c1cc(C(=O)Nc2nnc(C3CC3)s2)cc([N+](=O)[O-])c1`, under setting [1], the AC50 was 4.61 µM [rising, full curve, poor fit].
